In the supplement of paper PMC4604168 (melanoma cell lines):
Some of the results follow. Single values are uncertain, as repeats are few or missing.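 Cells were imaged in 1,536-well plates, and nuclei stained with an antibody against cleaved PARP were counted against all DNA-stained nuclei to give the apoptosis fraction. Screening doses were chosen to leave most cells alive, and resting and induced cleaved-PARP levels differ strongly between cell lines.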

How the values were obtained:
Experiment in all cases: cleaved PARP positive nuclei fraction relative to DMSO control; melanoma cells; higher = more apoptosis
Conditions in all cases: library dose: low library concentration; 72 h
WM115 = system: WM115
WM1716 = system: WM1716
WM1745 = system: WM1745
WM3526 = system: WM3526
WM3619 = system: WM3619
WM451Lu = system: WM451Lu

SMILES | cleaved PARP positive nuclei fraction (WM115) [%] | cleaved PARP positive nuclei fraction (WM1716) [%] | cleaved PARP positive nuclei fraction (WM1745) [%] | cleaved PARP positive nuclei fraction (WM3526) [%] | cleaved PARP positive nuclei fraction (WM3619) [%] | cleaved PARP positive nuclei fraction (WM451Lu) [%]
Cc1cc(SCc2sc(-c3ccc(C(F)(F)F)c(F)c3)nc2C)ccc1OCC(=O)O + COc1cc(N2CCC(N3CCN(C)CC3)CC2)ccc1Nc1ncc(Cl)c(Nc2ccccc2S(=O)(=O)C(C)C)n1 [NVP-TAE684] (first compound 2 µM, partner dose 0.08 µM) | 83.7 | 53 | 90.7 | 76.2 | 91 | 27.1
Cn1cc(C2=C(c3cn(C4CCN(Cc5ccccn5)CC4)c4ccccc34)C(=O)NC2=O)c2ccccc21 [Enzastaurin] + Cn1cc(/C=C2\C(=O)Nc3cccnc32)c2ccccc21 [GW441756] (first compound 0.8 µM, partner dose 0.4 µM) | 66.6 | 184 | 97.1 | 65.5 | 100 | 114
COCC[n+]1c2c(n(Cc3cnccn3)c1C)C(=O)c1ccccc1C2=O + O=C(Oc1ccc([N+](=O)[O-])cc1)N1CCC(C(O)(c2ccc3c(c2)OCO3)c2ccc3c(c2)OCO3)CC1 [JZL184] (first compound 0.0004 µM, partner dose 1 µM) | 178 | 114 | 106 | 76.6 | 82.2 | 155
Cn1cc(C2=C(c3cn(C4CCN(Cc5ccccn5)CC4)c4ccccc34)C(=O)NC2=O)c2ccccc21 [Enzastaurin] + O=C(O)C(=O)Nc1sc2c(c1C(=O)O)CCNC2 [TCS401] (first compound 0.8 µM, partner dose 1.66667 µM) | 307 | 486 | 108 | 109 | 87.1 | 59
N.N.[Cl][Pt][Cl] [cisplatin] + CC1(C)NC(=O)N(c2ccc([N+](=O)[O-])c(C(F)(F)F)c2)C1=O [nilutamide] (first compound 1.6 µM, partner dose 1 µM) | 90 | 69.4 | 71.4 | 123 | 81.3 | 59.9
C[As](C)SC[C@H](NC(=O)CC[C@H](N)C(=O)O)C(=O)NCC(=O)O [Darinaparsin] + CCN(CC)CCCCNc1ncc2cc(-c3cc(OC)cc(OC)c3)c(NC(=O)NC(C)(C)C)nc2n1 [PD173074] (first compound 0.4 µM, partner dose 0.1 µM) | 129 | 206 | 111 | 58.6 | 179 | 55.1
CS(=O)(=O)c1ccc(C(=O)Nc2ccc(Cl)c(-c3ccccn3)c2)c(Cl)c1 [vismodegib] + Cc1cc(SCc2sc(-c3ccc(C(F)(F)F)c(F)c3)nc2C)ccc1OCC(=O)O [GW0742] (first compound 1 µM, partner dose 2 µM) | 101 | 67.1 | 84.9 | 78.8 | 74.4 | 154
COc1cc([C@@H]2c3cc4c(cc3[C@@H](O[C@@H]3O[C@@H]5CO[C@@H](C)O[C@H]5[C@H](O)[C@H]3O)[C@H]3COC(=O)[C@H]23)OCO4)cc(OC)c1O [etoposide] + C/C(O)=C(\C#N)C(=O)Nc1cc(Br)ccc1Br [LFM-A13] (first compound 0.02 µM, partner dose 2 µM) | 175 | 489 | 82.9 | 225 | 122 | 71.5
Cn1cc(C2=C(c3cn(C4CCN(Cc5ccccn5)CC4)c4ccccc34)C(=O)NC2=O)c2ccccc21 [Enzastaurin] + C#Cc1cccc(Nc2ncnc3cc(OCCOC)c(OCCOC)cc23)c1 [erlotinib] (first compound 0.8 µM, partner dose 0.8 µM) | 80.6 | 18.7 | 122 | 117 | 82.4 | 40.8
O=c1[nH]nc(Sc2ncc([N+](=O)[O-])s2)n1-c1ccc2c(c1)OCCO2 + C/C(O)=C(\C#N)C(=O)Nc1cc(Br)ccc1Br [LFM-A13] (first compound 0.2 µM, partner dose 2 µM) | 72.4 | 204 | 84.4 | 75.2 | 95 | 89.9
C[C@]12O[C@H](C[C@]1(O)CO)n1c3ccccc3c3c4c(c5c6ccccc6n2c5c31)CNC4=O [Lestaurtinib] + Cc1nc(Nc2ncc(C(=O)Nc3c(C)cccc3Cl)s2)cc(N2CCN(CCO)CC2)n1 [dasatanib] (first compound 0.004 µM, partner dose 0.004 µM) | 109 | 157 | 124 | 91.4 | 95.2 | 189
O=C(/C=C/c1cccnc1)NCCCCC1CCN(C(=O)c2ccccc2)CC1 + O=C(Oc1ccc([N+](=O)[O-])cc1)N1CCC(C(O)(c2ccc3c(c2)OCO3)c2ccc3c(c2)OCO3)CC1 [JZL184] (first compound 0.01 µM, partner dose 1 µM) | 169 | 113 | 73.7 | 73.9 | 93.6 | 67.3
CCCS(=O)(=O)Nc1ccc(F)c(C(=O)c2c[nH]c3ncc(Cl)cc23)c1F + O=C(Oc1ccc([N+](=O)[O-])cc1)N1CCC(C(O)(c2ccc3c(c2)OCO3)c2ccc3c(c2)OCO3)CC1 [JZL184] (first compound 0.08 µM, partner dose 1 µM) | 164 | 49.6 | 79.9 | 144 | 93.8 | 42.7
Cn1cc(C2=C(c3cn(C4CCN(Cc5ccccn5)CC4)c4ccccc34)C(=O)NC2=O)c2ccccc21 [Enzastaurin] + COc1cc2ncnc(Nc3ccc(Oc4ccccc4)cc3)c2cc1OC [SrcI1] (first compound 0.8 µM, partner dose 2 µM) | 94.1 | 164 | 97.5 | 67.7 | 112 | 117
C/C(O)=C(\C#N)C(=O)Nc1cc(Br)ccc1Br + CCCCCCCCCCCC1=C(O)C(=O)C=C(O)C1=O [Embelin] (first compound 2 µM, partner dose 1.2 µM) | 144 | 54 | 106 | 250 | 87.1 | 60.3
C[C@]12O[C@H](C[C@]1(O)CO)n1c3ccccc3c3c4c(c5c6ccccc6n2c5c31)CNC4=O [Lestaurtinib] + Cn1c(Nc2ccc(C(F)(F)F)cc2)nc2cc(Oc3ccnc(-c4ncc(C(F)(F)F)[nH]4)c3)ccc21 [CHIR265] (first compound 0.004 µM, partner dose 0.08 µM) | 401 | 66 | 126 | 229 | 110 | 146
N#Cc1c(O)c2c(-c3ccc(-c4ccccc4O)cc3)csc2[nH]c1=O + Cc1cc(SCc2sc(-c3ccc(C(F)(F)F)c(F)c3)nc2C)ccc1OCC(=O)O [GW0742] (first compound 2 µM, partner dose 2 µM) | 93.6 | 165 | 115 | 169 | 82.1 | 864
O=C(O)[C@@H]1[O][Sb](=[O])([O][Sb]2(=[O])[O][C@H]([C@H](O)CO)[C@H](O)[C@H](C(=O)O)[O]2)[O][C@H]([C@H](O)CO)[C@@H]1O (stereo not given in full) [stibogluconate] + C/C(O)=C(\C#N)C(=O)Nc1cc(Br)ccc1Br [LFM-A13] (first compound 2 µM, partner dose 2 µM) | 249 | 163 | 87.3 | 77.5 | 81.7 | 64.4
Cc1ccc(Nc2nccc(N(C)c3ccc4c(C)n(C)nc4c3)n2)cc1S(N)(=O)=O [Pazopanib] + C[C@]12O[C@H](C[C@]1(O)CO)n1c3ccccc3c3c4c(c5c6ccccc6n2c5c31)CNC4=O [Lestaurtinib] (first compound 0.4 µM, partner dose 0.004 µM) | 91.8 | 121 | 113 | 411 | 90.6 | 25.8
Cn1c(=O)n(-c2ccc(C(C)(C)C#N)cc2)c2c3cc(-c4cnc5ccccc5c4)ccc3ncc21 + O=C(Oc1ccc([N+](=O)[O-])cc1)N1CCC(C(O)(c2ccc3c(c2)OCO3)c2ccc3c(c2)OCO3)CC1 [JZL184] (first compound 0.004 µM, partner dose 1 µM) | 143 | 118 | 93.8 | 85 | 84.7 | 72.4
O=S(=O)(c1ccccc1)N(CC(F)(F)F)c1ccc(C(O)(C(F)(F)F)C(F)(F)F)cc1 + Cc1cc(SCc2sc(-c3ccc(C(F)(F)F)c(F)c3)nc2C)ccc1OCC(=O)O [GW0742] (first compound 1.4 µM, partner dose 2 µM) | 59.5 | 110 | 137 | 77.4 | 432 | 51.7
NC1(c2ccc(-c3nc4ccn5c(=O)[nH]nc5c4cc3-c3ccccc3)cc2)CCC1 + C/C(O)=C(\C#N)C(=O)Nc1cc(Br)ccc1Br [LFM-A13] (first compound 0.4 µM, partner dose 2 µM) | 212 | 50.8 | 82.8 | 63.7 | 94.1 | 91.5
CS(=O)(=O)CCNCc1ccc(-c2ccc3ncnc(Nc4ccc(OCc5cccc(F)c5)c(Cl)c4)c3c2)o1 [lapatinib] + O=C(Oc1ccc([N+](=O)[O-])cc1)N1CCC(C(O)(c2ccc3c(c2)OCO3)c2ccc3c(c2)OCO3)CC1 [JZL184] (first compound 0.8 µM, partner dose 1 µM) | 47 | 182 | 95.7 | 68.5 | 108 | 61.4
Cn1cc(C2=C(c3cn(C4CCN(Cc5ccccn5)CC4)c4ccccc34)C(=O)NC2=O)c2ccccc21 [Enzastaurin] + COc1cc(N2CCC(N3CCN(C)CC3)CC2)ccc1Nc1ncc(Cl)c(Nc2ccccc2S(=O)(=O)C(C)C)n1 [NVP-TAE684] (first compound 0.8 µM, partner dose 0.08 µM) | 212 | 255 | 124 | 165 | 88.8 | 148
N#CC[C@H](C1CCCC1)n1cc(-c2ncnc3[nH]ccc23)cn1 [ruxolitinib] + C[C@]12O[C@H](C[C@]1(O)CO)n1c3ccccc3c3c4c(c5c6ccccc6n2c5c31)CNC4=O [Lestaurtinib] (first compound 1 µM, partner dose 0.004 µM) | 85.7 | 34.1 | 202 | 99.4 | 96.1 | 57.8

Reformatted: results already given
COc1cc([C@@H]2c3cc4c(cc3[C@@H](O[C@@H]3O[C@@H]5CO[C@@H](C)O[C@H]5[C@H](O)[C@H]3O)[C@H]3COC(=O)[C@H]23)OCO4)cc(OC)c1O [etoposide] + C/C(O)=C(\C#N)C(=O)Nc1cc(Br)ccc1Br [LFM-A13] (first compound 0.02 µM, partner dose 2 µM)
  cleaved PARP positive nuclei fraction (WM115) [%]: 175
  cleaved PARP positive nuclei fraction (WM1716) [%]: 489
  cleaved PARP positive nuclei fraction (WM1745) [%]: 82.9
  cleaved PARP positive nuclei fraction (WM3526) [%]: 225
  cleaved PARP positive nuclei fraction (WM3619) [%]: 122
  cleaved PARP positive nuclei fraction (WM451Lu) [%]: 71.5
Cn1cc(C2=C(c3cn(C4CCN(Cc5ccccn5)CC4)c4ccccc34)C(=O)NC2=O)c2ccccc21 [Enzastaurin] + COc1cc(N2CCC(N3CCN(C)CC3)CC2)ccc1Nc1ncc(Cl)c(Nc2ccccc2S(=O)(=O)C(C)C)n1 [NVP-TAE684] (first compound 0.8 µM, partner dose 0.08 µM)
  cleaved PARP positive nuclei fraction (WM115) [%]: 212
  cleaved PARP positive nuclei fraction (WM1716) [%]: 255
  cleaved PARP positive nuclei fraction (WM1745) [%]: 124
  cleaved PARP positive nuclei fraction (WM3526) [%]: 165
  cleaved PARP positive nuclei fraction (WM3619) [%]: 88.8
  cleaved PARP positive nuclei fraction (WM451Lu) [%]: 148
